Values quoted from earlier work as cited in patent US6861260B2, “Lipid membrane, method for measuring membrane permeability, and method for screening” (Chugai Seiyaku Kabushiki Kaisha, priority 2000, dated 2005).
Marks after values point to notes of the source that are not given here.

Conditions: literature data, References *1 to *4; cited from earlier work

CC(C)NCC(O)COc1ccc(CC(N)=O)cc1 (centres unmarked) [Atenolol]
Human intestinal absorption (Fa, %): 50*^1%

NS(=O)(=O)c1cc(C(=O)O)c(NCc2ccco2)cc1Cl [Furosemide]
Human intestinal absorption (Fa, %): 61*^1%
